# Laboratory results as given in PubChem BioAssay AID662 (National Center for Advancing Translational Sciences (NCATS), 2007).
# “And” between values parts separate entries of the source, which are not always exact repeats. Identical values can stand only once. The list shows a part of the results. Further columns of the screen follow, without active or inactive calls. Most of these compounds were active or inconclusive in the main read-out, so they are no random draw. Words in brackets tell the shape of the fitted curve; partial curves, single points and poor fits give uncertain potencies.
# Experiment: Cell signaling CRE-BLA (Fsk stim)
# Details: CHO CRE-bla reporter (cAMP response element driving beta-lactamase), forskolin EC10, beta-lactamase ratio; measured here: 460 nm blue channel
# Method in brief: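 Cells were plated overnight at 37 °C, exposed to compound titrations plus EC10 NKH 477 for 3 h, then given CCF4 dye for 2 h at room temperature. Blue/green (460/530 nm) ratio was converted to %Activity and AC50 values calculated.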
row,SMILES,AC50
1,COc1ccc(CN2CCN(c3ccccc3F)CC2)c(OC)c1,"0.00398 µM [falling, full curve, poor fit]"
2,CCC(=O)c1c(O)n(C2CCCCCC2)c(=O)[nH]c1=O,"25.1 µM [falling, single point]"
3,CCOC(=O)c1ncn2c1[C@H]1CCCN1C(=O)c1cc(OC)ccc1-2,"15.8 µM [rising, partial curve] and 10 µM [rising, partial curve]"
4,COc1ccc2c(c1OC)C(=O)OC2c1c(O)n(Cc2ccc(F)cc2)c(=O)[nH]c1=O (centres undefined),"3.16 µM [falling, partial curve]"
5,COC(=O)CN1CN(c2ccccc2)C2(CCN(Cc3ccc4ccccc4c3)CC2)C1=O,"31.6 µM [falling, single point]"
6,CC(C)C[C@H]1C(=O)N2CCC[C@@H]2[C@]2(O)O[C@](NC(=O)[C@H]3C=C4c5cccc6[nH]cc(c56)C[C@H]4N(C)C3)(C(C)C)C(=O)N12,"3.98 µM [rising, full curve]"
7,Cn1c(C(=O)N2CCC3(CC2)OCCO3)cc2c(=O)n(C)c3ccccc3c21,"15.8 µM [rising, single point]"
8,COc1ccc(C[C@H]2NC[C@H](O)[C@@H]2OC(C)=O)cc1,"5.01 µM [falling, partial curve, poor fit]"
9,COc1ccc(C(=O)c2c(C)n(CCN3CCOCC3)c3cc(I)ccc23)cc1,"31.6 µM [falling, partial curve]"
10,CCOC(=O)C1C(=O)N(C)C2(C)CC1c1cc(OC)ccc1O2 (centres undefined),"0.0316 µM [falling, full curve, poor fit]"
11,O=c1[nH]c(=O)n(Cc2ccc(F)cc2)c(O)c1C=NCCN1CCCCC1,"12.6 µM [falling, partial curve]"
12,Cc1ccc(S(=O)(=O)N2CN3CCN(C3)C2)cc1,"0.501 µM [falling, single point]"
13,O=C1C2CCN(CC2)C1Cc1ccc(OCCOc2ccccc2)cc1 (centres undefined),"3.16 µM [rising, single point]"
14,CCOC(=O)c1c(C)n(Cc2ccco2)c2ccc(OC)cc12,"12.6 µM [rising, partial curve]"
15,Cc1c2ccncc2c(C)c2c1[nH]c1ccccc12,"12.6 µM [rising, partial curve] and 5.01 µM [rising, partial curve]"
16,CCN1CCN(c2ncnc3ccc(Br)cc23)CC1,"12.6 µM [falling, partial curve]"
17,Fc1ccc2c(c1)nnn2C1CCN(Cc2nnnn2C2CCCCC2)CC1,"3.98 µM [falling, single point]"
18,C[C@]12CC[C@H](O)C[C@@H]1CC[C@H]1[C@H]2CC[C@]2(C)[C@H](C(=O)CO)CC[C@@H]12,"12.6 µM [rising, partial curve]"
19,C=CCn1c(O)c(C(C)=Nc2ccc(C(=O)OCC)cc2)c(=O)[nH]c1=O,"5.01 µM [falling, single point]"
20,O=C(Cc1ccccc1)N1CCN(C/C=C/c2ccccc2)CC1,"5.01 µM [falling, single point]"
21,CCCCc1ccc2[nH]cc(CCN)c2c1,"0.631 µM [falling, partial curve]"
22,CCCCn1c(=O)c(C(=O)Nc2ccccc2S(N)(=O)=O)c(O)c2ccccc21,"12.6 µM [falling, partial curve]"

row,SMILES,AC50
1,COc1cccc(-c2cc(C(F)(F)F)n3nc(C(=O)N4CCC5(CC4)OCCO5)cc3n2)c1,"15.8 µM [rising, partial curve]"
2,ClC1=C(Cl)C2(Cl)C3C4C=CC(C4)C3C1(Cl)C2(Cl)Cl (centres undefined),"1.58 µM [rising, full curve]"
3,C[C@@H](CO)NC(=O)[C@H]1C=C2c3cccc4[nH]cc(c34)C[C@H]2N(C)C1,"12.6 µM [falling, partial curve, poor fit]"
4,O=S(=O)(O)/C(=C\c1ccccc1)c1ccccc1 (tested in a mixture with another compound),"5.01 µM [rising, single point]"
5,CCC(=NCc1ccco1)c1c(O)n(Cc2ccccc2)c(=O)[nH]c1=O,"0.158 µM [rising, partial curve, poor fit]"
6,CC1(C)CSC(Nc2ccc(F)c(Cl)c2)=N1,"3.98 µM [rising, single point]"
7,O=C(O)C1(c2ccc(Cl)cc2)CCC1,"5.01 µM [falling, single point]"
8,CCCCCn1c(=O)c(C(=O)Nc2ccncc2)c(O)c2ccccc21,"2 µM [falling, full curve]"
9,CCC[C@@H]1CC2=CC(=O)CC[C@]2(C)[C@@H]2CC[C@@]3(C)[C@H](CC[C@]3(O)CCC(=O)O)[C@H]12,"12.6 µM [rising, partial curve]"
10,NCCc1c[nH]c2ccccc12,"1 µM [falling, full curve]"
11,Cc1cccc(C)c1NC1=NCCCS1,"3.98 µM [falling, partial curve]"
12,CC(N=Cc1c(O)[nH]c(=O)[nH]c1=O)c1ccccc1 (centres undefined),"1.26 µM [falling, full curve]"
13,O=S1(=O)CC2(N3CCOCC3)CCCCCCC21 (centres undefined),"0.631 µM [falling, partial curve]"
14,COCCOC(=O)c1c(N)n(Cc2ccc(OC)cc2)c2nc3ccccc3nc12,"10 µM [rising, partial curve]"
15,CC(=O)C1=C(O)[C@@H]2[C@@H]3c4c[nH]c5cccc(c45)C[C@@H]3C(C)(C)N2C1=O,"3.16 µM [rising, partial curve]"
16,CN1CCC(N(C)c2nc(-c3ccccc3)nc3ccccc23)CC1,"10 µM [rising, single point]"
17,O=C(C1CC(=O)N(C2CCCCC2)C1)N1CCC2(CC1)OCCO2 (centres undefined),"15.8 µM [rising, single point]"
18,CCOP(=O)(C#CC(C)(C)C)C(C)(O)c1ccccc1 (centres undefined),"2.51 µM [falling, single point]"
19,C=CCn1c(O)c(C=Nc2ccc(OC)cc2C)c(=O)[nH]c1=O,"2.51 µM [rising, partial curve]"
20,NC(=NCCc1ccc(I)cc1)SCCCc1cnc[nH]1,"31.6 µM [falling, single point]"
21,COc1cc2c(cc1OC)[C@@]13CCN4CC5=CCO[C@H](CC(=O)O)[C@@H]([C@H]1N2)[C@H]5C[C@H]43,"1 µM [rising, single point]"
22,COc1ccc(C[C@@H]2C(=O)N[C@H](C)C(=O)N(C)[C@@H]3C(=O)N(C)[C@@H](Cc4ccc(O)c(c4)Oc4ccc(cc4)[C@H]3O)C(=O)N[C@@H](C)C(=O)N[C@H](C)C(=O)N2C)cc1,"5.01 µM [falling, single point]"

row,SMILES,AC50
1,CCC(=NCc1ccco1)c1c(O)n(-c2ccccc2)c(=O)[nH]c1=O,"10 µM [rising, single point]"
2,CCN1c2nc3ccccn3c(=O)c2CC2(C(=O)N(C)C(=O)N(C)C2=O)C1C (centres undefined),"3.98 µM [falling, partial curve]"
3,O=C(c1cc2nc(-c3ccccc3)cc(-c3ccccc3)n2n1)N1CCC2(CC1)OCCO2,"2 µM [rising, full curve]"
4,NCCc1c[nH]c2ccc(O)cc12,"25.1 µM [falling, partial curve, poor fit]"
5,CCN1CCN(Cc2ccc(C)cc2C)CC1,"3.98 µM [falling, single point]"
6,Cc1nc2cnc(N3CCNCC3)nc2n(C)c1=O,"12.6 µM [rising, partial curve, poor fit]"
7,Oc1c(Cl)c(Cl)c(Cl)c(Cl)c1Cl,"25.1 µM [falling, partial curve, poor fit]"
8,CC(=NCCC1=CCCCC1)c1c(O)[nH]c(=O)[nH]c1=O,"20 µM [rising, single point]"
9,COc1ccc(OC)c(-n2c(O)c(C=NCc3ccc4c(c3)OCO4)c(=O)[nH]c2=O)c1,"10 µM [rising, single point]"
10,COc1ccc2c(c1)[nH]c1c(C)nccc12,"6.31 µM [falling, partial curve]"
11,Cc1nc2nc(C)c(CCC(=O)N3CCC4(CC3)OCCO4)c(C)n2n1,"0.00398 µM [falling, full curve]"
12,CCCCn1c(=O)c(C(=O)NCc2ccncc2)c(O)c2ccccc21,"2.51 µM [rising, partial curve]"
13,CCCN1CCc2cc(O)cc3c2[C@H]1Cc1ccc(O)c(O)c1-3,"12.6 µM [falling, single point]"
14,CCCN(CCC)[C@@H]1CCc2cccc(O)c2C1,"10 µM [rising, partial curve]"
15,COc1ccc(OC)c(N2C(=O)NC(=O)C3(Cc4cc(C)ccc4N(C)C3)C2=O)c1 (centres undefined),"3.98 µM [falling, single point]"
16,COc1ccc(S(=O)(=O)NC(CC(=O)N2CCC3(CC2)OCCO3)c2ccco2)cc1 (centres undefined),"0.794 µM [falling, partial curve]"
17,Clc1ccc([C@@H]2C[C@H]3CC[C@@H]2N3)cn1,"31.6 µM [rising, partial curve, poor fit]"
18,c1cc(C2N3CCCN2CC3)ccn1 (centres undefined),"1 µM [rising, single point]"
19,CN1C2CCC1CC(OC(=O)CCN1CCCC1)C2 (centres undefined),"31.6 µM [falling, single point]"
20,CC(=NCc1cccnc1)c1c(O)n(C2CCCCC2)c(=O)[nH]c1=O,"3.16 µM [falling, single point]"
